Reference: paper PMC3040221
Results are given in words; binding and its absence hold for the method and conditions named. In cells and extracts the contact can be indirect. Some entries that bind do so weakly or less than the wild type.

By UniProt entry, the sequences of proteins in these tests, tags left out.
UniProt Q8BTM8: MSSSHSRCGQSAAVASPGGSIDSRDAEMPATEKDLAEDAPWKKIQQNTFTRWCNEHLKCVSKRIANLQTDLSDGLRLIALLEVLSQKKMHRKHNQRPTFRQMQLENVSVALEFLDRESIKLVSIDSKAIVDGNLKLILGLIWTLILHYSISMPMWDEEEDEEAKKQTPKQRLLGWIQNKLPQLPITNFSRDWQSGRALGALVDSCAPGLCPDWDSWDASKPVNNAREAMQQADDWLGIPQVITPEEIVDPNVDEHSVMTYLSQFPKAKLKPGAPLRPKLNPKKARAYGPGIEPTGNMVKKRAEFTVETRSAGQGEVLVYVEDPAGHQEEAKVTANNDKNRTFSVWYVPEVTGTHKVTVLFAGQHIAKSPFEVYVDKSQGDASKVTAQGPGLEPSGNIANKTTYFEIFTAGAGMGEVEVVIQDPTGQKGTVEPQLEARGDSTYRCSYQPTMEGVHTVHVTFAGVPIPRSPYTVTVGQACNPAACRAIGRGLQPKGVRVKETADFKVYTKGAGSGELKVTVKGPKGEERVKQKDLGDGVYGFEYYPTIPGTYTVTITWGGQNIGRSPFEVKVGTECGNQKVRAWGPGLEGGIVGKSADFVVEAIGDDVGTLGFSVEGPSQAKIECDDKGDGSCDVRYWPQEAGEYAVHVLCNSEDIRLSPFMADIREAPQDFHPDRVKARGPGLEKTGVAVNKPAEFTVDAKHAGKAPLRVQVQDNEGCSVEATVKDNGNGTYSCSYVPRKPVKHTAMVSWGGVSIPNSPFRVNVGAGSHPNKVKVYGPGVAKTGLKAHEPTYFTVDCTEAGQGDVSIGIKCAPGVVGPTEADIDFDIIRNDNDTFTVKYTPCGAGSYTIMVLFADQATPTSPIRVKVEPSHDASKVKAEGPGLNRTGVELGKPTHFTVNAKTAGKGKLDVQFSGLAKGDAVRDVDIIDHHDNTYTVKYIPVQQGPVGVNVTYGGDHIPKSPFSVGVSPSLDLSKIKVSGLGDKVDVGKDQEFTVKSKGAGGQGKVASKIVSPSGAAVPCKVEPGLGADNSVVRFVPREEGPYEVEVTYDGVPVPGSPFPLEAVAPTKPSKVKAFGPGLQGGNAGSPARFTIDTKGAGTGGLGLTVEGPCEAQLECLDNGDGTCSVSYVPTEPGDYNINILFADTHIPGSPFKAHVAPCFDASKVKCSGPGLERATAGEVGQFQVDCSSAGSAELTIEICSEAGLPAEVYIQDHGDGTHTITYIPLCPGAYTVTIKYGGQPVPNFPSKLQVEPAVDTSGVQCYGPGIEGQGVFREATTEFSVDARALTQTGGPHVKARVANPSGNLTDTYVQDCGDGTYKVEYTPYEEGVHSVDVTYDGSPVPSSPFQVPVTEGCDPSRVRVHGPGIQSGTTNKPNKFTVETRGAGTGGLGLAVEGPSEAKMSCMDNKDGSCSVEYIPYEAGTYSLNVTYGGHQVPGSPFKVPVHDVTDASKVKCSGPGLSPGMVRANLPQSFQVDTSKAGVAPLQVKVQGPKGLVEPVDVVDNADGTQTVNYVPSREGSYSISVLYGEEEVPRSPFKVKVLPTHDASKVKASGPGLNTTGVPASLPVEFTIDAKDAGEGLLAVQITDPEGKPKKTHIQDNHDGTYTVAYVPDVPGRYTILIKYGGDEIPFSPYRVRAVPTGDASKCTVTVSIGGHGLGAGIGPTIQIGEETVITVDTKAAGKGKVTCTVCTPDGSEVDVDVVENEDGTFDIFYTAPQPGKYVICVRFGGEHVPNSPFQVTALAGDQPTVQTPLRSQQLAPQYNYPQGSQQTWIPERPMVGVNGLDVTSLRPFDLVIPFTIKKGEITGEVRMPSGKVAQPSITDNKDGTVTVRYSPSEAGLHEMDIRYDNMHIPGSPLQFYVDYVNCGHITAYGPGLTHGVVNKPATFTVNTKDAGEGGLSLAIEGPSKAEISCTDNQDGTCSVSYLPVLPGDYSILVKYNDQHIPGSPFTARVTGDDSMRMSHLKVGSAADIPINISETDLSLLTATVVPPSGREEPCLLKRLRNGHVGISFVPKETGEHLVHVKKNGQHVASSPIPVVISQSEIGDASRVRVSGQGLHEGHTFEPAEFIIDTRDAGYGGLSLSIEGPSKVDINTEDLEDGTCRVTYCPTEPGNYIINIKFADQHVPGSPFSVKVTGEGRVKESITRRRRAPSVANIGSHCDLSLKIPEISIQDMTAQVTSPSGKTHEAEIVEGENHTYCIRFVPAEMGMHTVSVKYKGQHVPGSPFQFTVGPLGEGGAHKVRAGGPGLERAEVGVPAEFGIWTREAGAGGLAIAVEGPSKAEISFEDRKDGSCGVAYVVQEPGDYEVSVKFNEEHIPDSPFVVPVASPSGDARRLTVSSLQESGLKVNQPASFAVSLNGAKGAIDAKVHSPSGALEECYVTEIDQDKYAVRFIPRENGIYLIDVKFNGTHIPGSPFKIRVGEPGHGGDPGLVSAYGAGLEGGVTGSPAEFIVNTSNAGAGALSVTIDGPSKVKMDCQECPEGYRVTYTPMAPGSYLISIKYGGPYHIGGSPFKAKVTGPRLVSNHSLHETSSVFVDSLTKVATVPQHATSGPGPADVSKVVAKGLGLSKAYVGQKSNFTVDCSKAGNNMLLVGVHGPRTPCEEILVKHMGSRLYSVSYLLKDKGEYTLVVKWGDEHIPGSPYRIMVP

Biological target: Filamin A (endogenous, NIH3T3 fibroblasts) (mouse (endogenous in NIH3T3)) (UniProt Q8BTM8)
Test: co-IP; quiescent NIH3T3 cells untreated or treated 5 min with R1881 (1 pM or 10 nM); lysates immunoprecipitated with anti-FlnA antibody, immunoblot (Fig. 6C, Fig. S6)

binding: binds weakly
B1: Integrin beta 3 (endogenous, NIH3T3 fibroblasts) (receptor, UniProt O54890 26-787)
chain: ESNICTTRGVNSCQQCLAVSPVCAWCSDETLSQGSPRCNLKENLLKDNCAPESIEFPVSEAQILEARPLSSKGSGSSAQITQVSPQRIALRLRPDDSKIFSLQVRQVEDYPVDIYYLMDLSFSMKDDLSSIQTLGTKLASQMRKLTSNLRIGFGAFVDKPVSPYMYISPPQAIKNPCYNMKNACLPMFGYKHVLTLTDQVSRFNEEVKKQSVSRNRDAPEGGFDAIMQATVCDEKIGWRNDASHLLVFTTDAKTHIALDGRLAGIVLPNDGHCHIGTDNHYSASTTMDYPSLGLMTEKLSQKNINLIFAVTENVVSLYQNYSELIPGTTVGVLSDDSSNVLQLIVDAYGKIRSKVELEVRDLPEELSLSFNATCLNNEVIPGLKSCVGLKIGDTVSFSIEAKVRGCPQEKEQSFTIKPVGFKDSLTVQVTFDCDCACQAFAQPSSPRCNNGNGTFECGVCRCDQGWLGSMCECSEEDYRPSQQEECSPKEGQPICSQRGECLCGQCVCHSSDFGKITGKYCECDDFSCVRYKGEMCSGHGQCNCGDCVCDSDWTGYYCNCTTRTDTCMSTNGLLCSGRGNCECGSCVCVQPGSYGDTCEKCPTCPDACSFKKECVECKKFNRGTLHEENTCSRYCRDDIEQVKELTDTGKNAVNCTYKNEDDCVVRFQYYEDTSGRAVLYVVEEPECPKGPDILVVLLSVMGAILLIGLATLLIWKLLITIHDRKEFAKFEEERARAKWDTANNPLYKEATSTFTNITYRGT
